Some of the results follow. Shown are side measurements of this screen, not its main read-out; they come without a call. Most of these compounds were active or inconclusive in the main read-out, so they are no random draw. Potencies come from curve fits of mixed quality, noted in brackets.
Assay: qHTS Assay to Find Inhibitors of Chronic Active B-Cell Receptor Signaling
Details: ABC-DLBCL IkBa-CBG/CBR reporter, luminescence ratio (green luciferase fused to IkBa over red control in TMD8 lymphoma cells), 4 h
Outline: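 Concentration-response series (up to 46 uM) were applied to TMD8 dual-reporter cells for 4 h at 37C with doxycycline. Green/red ratio, after filter-overlap correction, defined %Activity; red signal alone was normalised to basal cells and zero luminescence.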

[1] = measured here: CBR red luminescence, cell number
[2] = measured here: IkBa-CBG green luminescence

SMILES | AC50 [1] | AC50 [2]
Cc1nc(S(=O)(=O)N(C)c2ccccc2)c(C#N)c(C)c1Cl | 14.1 µM [falling, single point] | 
CCOc1cc(N2CCOCC2)c(OCC)cc1NS(=O)(=O)c1ccc(Cl)s1 | 35.5 µM [rising, single point] | 22.4 µM [falling, partial curve, poor fit]
COc1cccc(C(=O)Nc2ccc3nc(N4CCN(c5ncccn5)CC4)cc(C)c3c2)c1OC | 5.17 µM [falling, full curve] | 13 µM [rising, partial curve, poor fit]
O=c1c(Sc2ccccc2)c(C(F)(F)F)[nH]n1-c1ccccc1 | 23.1 µM [falling, partial curve, poor fit] | 
CCOc1ccc(C(=O)NC(=S)Nc2ccccn2)cc1[N+](=O)[O-] | 2.82 µM [falling, full curve] | 
Cc1ccc(C(C2C(=O)CC(C)(C)CC2=O)C2C(=O)CC(C)(C)CC2=O)s1 | 35.5 µM [rising, single point] | 
O=C(NCc1ccc2c(c1)OCO2)Nc1ccc(Cl)cc1 | 22.4 µM [falling, partial curve, poor fit] | 
O=c1oc2ccccc2c(Nc2ccccc2O)c1[N+](=O)[O-] | 3.16 µM [rising, single point] | 
CN(C)c1ccc(NC(=S)NC(=O)/C=C/c2ccc(Cl)cc2)cc1 | 25.9 µM [rising, single point] | 
C[C@@H]1C[C@@H]2OC(=O)[C@]3(C)[C@H]2[C@@H](OC3(C)O)[C@]2(C)C(=O)C=C[C@H]12 (some centres undefined) | 17.8 µM [falling, partial curve] | 
O=C(N/N=C/c1ccccn1)c1cc(-c2ccccc2Cl)n[nH]1 | 1.26 µM [falling, partial curve, poor fit] | 
O=c1cc(C(F)(F)F)[nH]c2ccc(OC(F)(F)F)cc12 | 4.47 µM [falling, full curve] | 2.82 µM [rising, full curve]
O=C(COc1ccc([N+](=O)[O-])cc1)NNC(=S)NC(=O)c1ccc(Br)cc1 | 11.2 µM [rising, partial curve] | 
CCCCOc1ccc(Cl)cc1CSc1nncn1N | 10.3 µM [rising, partial curve, poor fit] | 
O=C1c2ccc([N+](=O)[O-])cc2NC(c2ccco2)N1/N=C/c1ccco1 (centres undefined) | 35.5 µM [falling, single point] | 
Cc1nnc(Sc2cc(NCCO)c([N+](=O)[O-])c3nonc23)s1 | 17.8 µM [falling, single point] | 
Cc1ccccc1C(=O)OCc1nnc(-c2ccc(Cl)cc2)o1 | 35.5 µM [falling, single point] | 
CC(=O)N1CCN(c2cc(N3CCc4ccccc4C3)c(F)cc2[N+](=O)[O-])CC1 | 17.8 µM [falling, single point] | 
Cn1c2ccccc2c2cc([N+](=O)[O-])ccc21 | 11.2 µM [rising, single point] | 
CCOC(=O)c1ccc(NC(=S)N2CCSC2c2ccc(OC)cc2)cc1 (centres undefined) | 29.1 µM [falling, single point] | 
COCCn1c(-c2ccc(OC)cc2)cnc1SCC(=O)Nc1cc(C)on1 | 23.1 µM [falling, single point] | 
O=C1CC(C(F)(F)F)=NN1 | 0.1 µM [rising, full curve, poor fit] | 

Structures shown so far that contain a CF3 group (3):
SMILES | AC50 [1] | AC50 [2]
O=c1c(Sc2ccccc2)c(C(F)(F)F)[nH]n1-c1ccccc1 | 23.1 µM [falling, partial curve, poor fit] | 
O=c1cc(C(F)(F)F)[nH]c2ccc(OC(F)(F)F)cc12 | 4.47 µM [falling, full curve] | 2.82 µM [rising, full curve]
O=C1CC(C(F)(F)F)=NN1 | 0.1 µM [rising, full curve, poor fit] | 

(more compounds)

SMILES | AC50 [1] | AC50 [2]
Cc1c(NS(=O)(=O)c2cccc(C(=O)N3CCC(C)CC3)c2)c(=O)n(-c2ccccc2)n1C | 29.1 µM [falling, single point] | 
Nn1c(SCc2ccccc2)nnc1-c1ccccn1 | 35.5 µM [falling, single point] | 
CC(C)(C)C1CCc2c(sc(NC(=O)CSc3ncn[nH]3)c2C#N)C1 (centres undefined) | 25.9 µM [rising, partial curve] | 
CC(Sc1nc2ccccc2c(=O)n1C)C(=O)N(C)C1CCCCC1 (centres undefined) | 8.2 µM [falling, partial curve] | 
CCC(=O)Nc1ccc(N/C(N)=N/c2nc(C)cc(C)n2)cc1 | 0.1 µM [rising, full curve, poor fit] | 
O=C(Cc1cn2ccsc2n1)OCc1ccccc1 | 9.2 µM [falling, partial curve, poor fit] | 
CC(=N\NC(=O)c1cc(Br)ccc1O)/C(=N/O)C(=O)Nc1ccccc1 | 7.08 µM [falling, partial curve] | 
O=C1CN(C(=O)COC(=O)CCc2ccccc2)c2ccccc2N1 | 29.1 µM [rising, single point] | 
C/C(=N\OCC(=O)N/N=C/c1ccccc1)c1cccs1 | 29.1 µM [falling, single point] | 
Cc1nc2sccn2c1-c1csc(NCc2ccccc2)n1 | 20 µM [falling, partial curve] | 
Cc1cc(C)c(S(=O)(=O)N2CCN(C(=O)c3ccc(-n4cncn4)c([N+](=O)[O-])c3)CC2)c(C)c1 | 2.31 µM [falling, partial curve, poor fit] | 
CCN(CC)C(=O)CSc1nc2c(sc(=S)n2-c2ccccc2)c(=O)n1-c1ccccc1OC | 7.08 µM [falling, partial curve] | 
O=C(OCc1nc2ccccc2s1)c1cnccn1 | 3.55 µM [rising, full curve, poor fit] | 
N#CCCSc1ccccc1NC(=O)c1cc(=O)c2ccccc2o1 | 1.58 µM [falling, full curve] | 
CCCCSc1nnc2c(n1)[nH]c1ccccc12 | 2.06 µM [rising, partial curve, poor fit] | 
CCC/C=N/NC(=O)c1cc(Br)ccc1O | 1.16 µM [falling, full curve] | 
CCOC(=O)C1CCN(C(=O)Cn2cc(C#N)c3ccccc32)CC1 | 25.9 µM [falling, partial curve, poor fit] | 
O=C(CSCc1ccc(Cl)cc1)N1CCN(Cc2ccc3c(c2)OCO3)CC1 | 29.1 µM [falling, single point] | 
COc1ccc(-c2c/c(=N\c3nc(-c4ccccc4)c(C)s3)c3ccccc3o2)cc1O | 18.4 µM [rising, partial curve] | 6.51 µM [falling, full curve]
CCN(C(=O)COc1cccc(-n2cnnn2)c1)C1CCS(=O)(=O)C1 (centres undefined) | 11.6 µM [falling, partial curve, poor fit] | 
Cc1ccc2nc(NC(=O)CCn3cccc3)sc2c1 | 11.2 µM [falling, partial curve] | 
N#CCC(CNc1ncc(C(F)(F)F)cc1Cl)OC(=O)c1ccc(Cl)cc1 (centres undefined) | 6.31 µM [falling, partial curve, poor fit] | 

SMILES | AC50 [1] | AC50 [2]
COc1cc(NC(=O)Cn2nnc(-c3ccncc3)n2)cc(OC)c1 | 10 µM [rising, partial curve, poor fit] | 
CC(=O)/C(N)=N/Nc1cccc(Cl)c1 | 1.46 µM [rising, full curve, poor fit] | 
O=C(/C=C/c1ccc(F)cc1)N1CCc2ccccc2C1 | 13 µM [falling, partial curve] | 
C=CCn1c(SCC(=O)NC2CCCC2)nc2scc(-c3ccco3)c2c1=O | 11.6 µM [falling, single point] | 16.4 µM [rising, partial curve, poor fit]
Cc1onc(-c2ccccc2)c1C(=O)NC(=S)NNC(=O)c1cc(-c2ccc(F)cc2)n[nH]1 | 7.94 µM [falling, partial curve, poor fit] | 
CN1CCN(C=Nc2nc3ccccc3nc2N2CCCC2)CC1 | 35.5 µM [falling, single point] | 
CC1=C(C(=O)Nc2ccccc2)C2(CCCCC2)C(C#N)=C(SCC(N)=O)N1 | 13 µM [falling, single point] | 
CN(C)Cc1nc2ccccc2c(=O)n1Cc1nc(-c2cc3ccccc3o2)cs1 | 35.5 µM [falling, single point] | 
CC1(C2(O)CCCCC2)NCCc2ccccc21 (centres undefined) | 29.1 µM [falling, single point] | 
CCc1cccc(Nc2c3c(nc4ncnn24)CCC3)c1 | 3.98 µM [rising, partial curve, poor fit] | 
CCCCn1c2nc3ccccc3nc2c2c(=N)oc(C)nc21 | 35.5 µM [falling, single point] | 
CCn1c(SCC(=O)Nc2nc3ccc(OC)cc3s2)nnc1-c1ccoc1C | 17.8 µM [falling, single point] | 
Cc1nn(-c2ccccn2)c2c1C(c1ccccn1)C1=C(CCCC1=O)N2 (centres undefined) | 29.1 µM [falling, single point] | 
CCOC(=O)c1ccccc1NC(=O)c1cn(CC)c2nc(C)ccc2c1=O | 22.4 µM [falling, single point] | 
CCCCN1C(=O)C(NC(C)=O)c2cc(Br)ccc21 (centres undefined) | 0.58 µM [falling, partial curve, poor fit] | 
CC(C)c1cc(C(=O)N/N=C/c2ccco2)n[nH]1 | 11.6 µM [falling, partial curve] | 
CCc1ccc(S(=O)(=O)NCCOc2cccc3cccnc23)cc1 | 35.5 µM [falling, partial curve, poor fit] | 
C=CCn1c(C)cc(C(=O)COC(=O)/C=C/c2cccc(OC)c2)c1C | 4.47 µM [rising, partial curve] | 
CC(=O)c1cc(Cc2csc(C(C)=O)c2)cs1 | 15.8 µM [rising, partial curve] | 
O=C(O)/C=C/c1ccc(S(=O)(=O)N2CCN(CCN3C(=O)C4C5C=CC(C5)C4C3=O)CC2)cc1 (centres undefined) | 5.62 µM [rising, single point] | 

An excerpt of these results, as labelled records:
CC(=O)c1cc(Cc2csc(C(C)=O)c2)cs1
  AC50 [1]: 15.8 µM [rising, partial curve]
O=C(O)/C=C/c1ccc(S(=O)(=O)N2CCN(CCN3C(=O)C4C5C=CC(C5)C4C3=O)CC2)cc1 (centres undefined)
  AC50 [1]: 5.62 µM [rising, single point]
